These are yes or no findings as the source states them, for the method shown.

Protein sequences, listed by entry. Tags and fused reporters are not part of them. Residues count along the entry.
UniProt P23297, residues 2-94: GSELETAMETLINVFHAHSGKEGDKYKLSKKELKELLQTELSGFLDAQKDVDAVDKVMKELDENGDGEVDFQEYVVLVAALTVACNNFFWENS
UniProt P26447: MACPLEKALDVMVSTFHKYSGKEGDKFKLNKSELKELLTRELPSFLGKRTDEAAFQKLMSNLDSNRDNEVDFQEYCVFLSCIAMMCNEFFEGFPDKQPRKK
UniProt P60903: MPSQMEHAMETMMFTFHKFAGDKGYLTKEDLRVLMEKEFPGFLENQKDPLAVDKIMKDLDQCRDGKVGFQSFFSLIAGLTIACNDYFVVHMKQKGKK

Test [1] concerns the target recombinant human interferon beta-1a (human) (UniProt P01574). The test can be described thus: condition: only with 1 mM EDTA (Ca^2+-depleted S100), 1 µM; SPR; IFN-β immobilised by amine coupling; Ca^2+-depleted S100 as analyte (1 µM); 25 °C; 10 mM HEPES, 150 mM NaCl, 0.01% TWEEN 20, pH 7.4, 1 mM EDTA; both purified.
Test [2] has the same target. The test can be described thus: SPR; IFN-β immobilised on ProteOn GLH chip by amine coupling; Ca^2+-loaded S100 as analyte (0.25–5 µM S100A1, 0.5–5 µM S100A4/A6, 5 µM other S100); 25 °C; 10 mM HEPES, 150 mM NaCl, 0.01% TWEEN 20, pH 7.4, 1 mM CaCl2; heterogeneous ligand model; both purified.
For test [3] the target is unchanged. The test can be described thus: SPR; IFN-β immobilised by amine coupling; Ca^2+-depleted S100 as analyte (1 µM); 25 °C; 10 mM HEPES, 150 mM NaCl, 0.01% TWEEN 20, pH 7.4, 1 mM EDTA; both purified. (In SPR one partner is held on a chip, and binding of the other changes the refractive index at the surface.)

In the case of “recombinant human S100A1 (from UniProt P23297 2-94)”, in test [1], the binding entry is “no binding”.
The same measure, in the same setting: next, “recombinant human S100A4 (from UniProt P26447 1-101)”: “no binding”.
With “recombinant human S100A10 (from UniProt P60903 1-97)”, the figures for the binding result in test [2] and in test [3] were “no binding (tested: 5 µM; Kd not below 10 µM)” and “no binding (tested: 1 µM (1 mM EDTA))”, respectively.

The values are drawn from publication PMC7764042.
